# Assay results

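Malaria parasite (P. falciparum) lines kept in red blood cells; parasite DNA is measured by SYBR Green fluorescence after lysis, 72 h after compound addition. Each compound was titrated across a series from about 0.000037 to 29 µM. The number is the fitted AC50, the concentration giving a half-maximal change in signal; a lower value means higher potency, whether the curve shows a decrease or an increase. Calls follow the curve class and fit quality: every row here is inconclusive, covering signal-raising curves and weak, poorly fitted, partial or highest-dose-only inhibition curves.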

Values are in µM. All entries here are filed as inconclusive. Only part of the assay is shown, chiefly results filed as inconclusive. A potency from a partial, single-point or poor curve is only a rough figure.

compound	condition	Potency (µM)	curve as filed
C/C=C\C[C@H](C)[C@H](O)[C@H]1C(=O)N[C@@H](CC)C(=O)N(C)CC(=O)N(C)[C@@H](CC(C)C)C(=O)N[C@@H](C(C)C)C(=O)N(C)[C@@H](CC(C)C)C(=O)N[C@@H](C)C(=O)N[C@@H](C)C(=O)N(C)[C@@H](CC(C)C)C(=O)N(C)[C@@H](CC(C)C)C(=O)N(C)[C@@H](C(C)C)C(=O)N1C	CP315	16.94	inhibitor, single point
C/C=C\C[C@H](C)[C@H](O)[C@H]1C(=O)N[C@@H](CC)C(=O)N(C)CC(=O)N(C)[C@@H](CC(C)C)C(=O)N[C@@H](C(C)C)C(=O)N(C)[C@@H](CC(C)C)C(=O)N[C@@H](C)C(=O)N[C@@H](C)C(=O)N(C)[C@@H](CC(C)C)C(=O)N(C)[C@@H](CC(C)C)C(=O)N(C)[C@@H](C(C)C)C(=O)N1C	PC49	11.22	inhibitor, single point
C/C=C\C[C@H](C)[C@H](O)[C@H]1C(=O)N[C@@H](CC)C(=O)N(C)CC(=O)N(C)[C@@H](CC(C)C)C(=O)N[C@@H](C(C)C)C(=O)N(C)[C@@H](CC(C)C)C(=O)N[C@@H](C)C(=O)N[C@@H](C)C(=O)N(C)[C@@H](CC(C)C)C(=O)N(C)[C@@H](CC(C)C)C(=O)N(C)[C@@H](C(C)C)C(=O)N1C	GB4	0.6012	inhibitor, full curve, poor fit
C/C=C\C[C@H](C)[C@H](O)[C@H]1C(=O)N[C@@H](CC)C(=O)N(C)CC(=O)N(C)[C@@H](CC(C)C)C(=O)N[C@@H](C(C)C)C(=O)N(C)[C@@H](CC(C)C)C(=O)N[C@@H](C)C(=O)N[C@@H](C)C(=O)N(C)[C@@H](CC(C)C)C(=O)N(C)[C@@H](CC(C)C)C(=O)N(C)[C@@H](C(C)C)C(=O)N1C	JCK	17.78	inhibitor, single point
C/C=C\C[C@H](C)[C@H](O)[C@H]1C(=O)N[C@@H](CC)C(=O)N(C)CC(=O)N(C)[C@@H](CC(C)C)C(=O)N[C@@H](C(C)C)C(=O)N(C)[C@@H](CC(C)C)C(=O)N[C@@H](C)C(=O)N[C@@H](C)C(=O)N(C)[C@@H](CC(C)C)C(=O)N(C)[C@@H](CC(C)C)C(=O)N(C)[C@@H](C(C)C)C(=O)N1C	FAB9	12.59	inhibitor, single point
O=C(CCCN1CCN2CCCC2C1)c1ccc(F)cc1 (stereo not shown)	TAB165	17.78	inhibitor, single point
O=C(CCCN1CCN2CCCC2C1)c1ccc(F)cc1 (stereo not shown)	TAB109	7.943	inhibitor, single point
O=C(CCCN1CCN2CCCC2C1)c1ccc(F)cc1 (stereo not shown)	CP256	2.239	inhibitor, single point
O=C(CCCN1CCN2CCCC2C1)c1ccc(F)cc1 (stereo not shown)	ATS189	11.22	inhibitor, single point
O=C(CCCN1CCN2CCCC2C1)c1ccc(F)cc1 (stereo not shown)	AA1029	7.943	inhibitor, partial curve
O=C(CCCN1CCN2CCCC2C1)c1ccc(F)cc1 (stereo not shown)	CP194	19.01	inhibitor, partial curve, poor fit
O=C(CCCN1CCN2CCCC2C1)c1ccc(F)cc1 (stereo not shown)	CP265	10	inhibitor, single point
O=C(CCCN1CCN2CCCC2C1)c1ccc(F)cc1 (stereo not shown)	ATS95	8.912	inhibitor, single point
O=C(CCCN1CCN2CCCC2C1)c1ccc(F)cc1 (stereo not shown)	CP238	10	inhibitor, single point
O=C(CCCN1CCN2CCCC2C1)c1ccc(F)cc1 (stereo not shown)	CP211	0.012	inhibitor, full curve, poor fit
O=C(NC(=O)c1c(F)cccc1F)Nc1ccc(Cl)c(Oc2ncc(C(F)(F)F)cc2Cl)c1	CP215	8.492	inhibitor, partial curve, poor fit
O=C(NC(=O)c1c(F)cccc1F)Nc1ccc(Cl)c(Oc2ncc(C(F)(F)F)cc2Cl)c1	TAB165	0.5623	inhibitor, full curve, poor fit
O=C(NC(=O)c1c(F)cccc1F)Nc1ccc(Cl)c(Oc2ncc(C(F)(F)F)cc2Cl)c1	7G8	7.943	inhibitor, partial curve, poor fit
COC(=O)C1=C(C)NC(C)=C(C(=O)OC(C)C)[C@H]1c1cccc2nonc12	CP247	3.162	inhibitor, single point
COC(=O)C1=C(C)NC(C)=C(C(=O)OC(C)C)[C@H]1c1cccc2nonc12	ECU	0.1995	inhibitor, single point
COC(=O)C1=C(C)NC(C)=C(C(=O)OC(C)C)[C@H]1c1cccc2nonc12	CP268	6.424	inhibitor, partial curve
COC(=O)C1=C(C)NC(C)=C(C(=O)OC(C)C)[C@H]1c1cccc2nonc12	ATS189	3.162	inhibitor, single point
COC(=O)C1=C(C)NC(C)=C(C(=O)OC(C)C)[C@H]1c1cccc2nonc12	CP252	3.548	inhibitor, single point
COC(=O)C1=C(C)NC(C)=C(C(=O)OC(C)C)[C@H]1c1cccc2nonc12	CP262	2.558	inhibitor, partial curve
COC(=O)C1=C(C)NC(C)=C(C(=O)OC(C)C)[C@H]1c1cccc2nonc12	3D7	5.012	inhibitor, single point
COC(=O)C1=C(C)NC(C)=C(C(=O)OC(C)C)[C@H]1c1cccc2nonc12	CP286	3.548	inhibitor, single point

The last 2 entries again:

compound,condition,Potency (µM),curve as filed
COC(=O)C1=C(C)NC(C)=C(C(=O)OC(C)C)[C@H]1c1cccc2nonc12,3D7,5.012,"inhibitor, single point"
COC(=O)C1=C(C)NC(C)=C(C(=O)OC(C)C)[C@H]1c1cccc2nonc12,CP286,3.548,"inhibitor, single point"

Data taken from PubChem BioAssay AID504749, deposited by NCATS (2011).